# Measurements as given in PMC7038622.
# By UniProt entry, the sequences of proteins in these tests, tags left out.
# UniProt P63092: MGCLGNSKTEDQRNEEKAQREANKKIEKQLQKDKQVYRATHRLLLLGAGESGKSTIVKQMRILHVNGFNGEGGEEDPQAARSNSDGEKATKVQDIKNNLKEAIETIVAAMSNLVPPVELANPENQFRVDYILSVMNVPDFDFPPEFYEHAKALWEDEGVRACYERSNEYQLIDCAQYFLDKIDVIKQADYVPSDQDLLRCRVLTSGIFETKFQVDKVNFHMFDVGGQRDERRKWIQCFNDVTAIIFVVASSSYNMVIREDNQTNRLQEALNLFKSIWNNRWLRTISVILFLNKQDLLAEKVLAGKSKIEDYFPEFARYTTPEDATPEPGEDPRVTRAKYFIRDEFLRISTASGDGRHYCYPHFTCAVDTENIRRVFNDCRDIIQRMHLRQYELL
# UniProt P40763: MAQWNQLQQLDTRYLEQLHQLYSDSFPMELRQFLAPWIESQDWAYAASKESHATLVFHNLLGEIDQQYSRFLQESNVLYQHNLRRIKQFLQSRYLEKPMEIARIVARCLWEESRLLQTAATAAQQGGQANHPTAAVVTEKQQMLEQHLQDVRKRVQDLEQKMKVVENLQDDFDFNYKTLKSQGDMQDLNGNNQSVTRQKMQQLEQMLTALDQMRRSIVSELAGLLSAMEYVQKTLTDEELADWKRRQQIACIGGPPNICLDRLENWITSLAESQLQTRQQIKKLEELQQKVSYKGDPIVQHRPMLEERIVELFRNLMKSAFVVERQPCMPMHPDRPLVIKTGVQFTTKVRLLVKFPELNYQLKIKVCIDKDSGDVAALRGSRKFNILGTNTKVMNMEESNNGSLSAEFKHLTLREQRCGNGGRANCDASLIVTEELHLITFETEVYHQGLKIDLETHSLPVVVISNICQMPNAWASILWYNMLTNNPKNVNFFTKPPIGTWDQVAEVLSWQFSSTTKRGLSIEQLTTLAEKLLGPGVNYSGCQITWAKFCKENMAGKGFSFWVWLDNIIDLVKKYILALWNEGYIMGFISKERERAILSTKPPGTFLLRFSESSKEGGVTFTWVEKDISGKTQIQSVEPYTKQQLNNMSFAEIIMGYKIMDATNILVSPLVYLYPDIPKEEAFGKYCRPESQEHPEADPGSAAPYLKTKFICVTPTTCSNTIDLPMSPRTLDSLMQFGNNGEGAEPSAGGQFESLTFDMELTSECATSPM
# These are yes or no findings as the source states them, for the method shown. In cells and extracts the contact can be indirect. Some entries that bind do so weakly or less than the wild type.
# What was measured:
# [1] = target: Myc-GNAS (from pCMV-Myc-GNAS), exogenous (UniProt P63092); assay: co-IP; HepG2 cells transfected with pCMV-myc-GNAS and pCMV-flag-STAT3 for 24 h; anti-Flag or anti-Myc at 4 °C overnight, protein A-agarose beads, Western blotting
# [2] = target: G-protein alpha-subunit (GNAS), endogenous (human (endogenous in HepG2)) (UniProt P63092); assay: co-IP; endogenous proteins from HepG2 lysate (also GNAS knockout HepG2 cells; with or without LPS 5 μg/ml for the indicated hours); antibody at 4 °C overnight, protein A-agarose beads, Western blotting
Substance,binding [1],binding [2]
"Flag-STAT3 (from pCMV-Flag-STAT3), exogenous (from UniProt P40763 1-770)",binds,
"signal transducer and activator of transcription 3 (STAT3), endogenous (from UniProt P40763 1-770)",,binds
